# Laboratory results reported in patent publication US12291651B2, “Liquid crystal-infused slippery anti-fouling surfaces” (priority 2021, dated 2025).
# Assay: Droplet sliding time on E7-infused (LC-infused) PTFE SLIPS
# Conditions: for sliding time: PBS + 1% DMSO
# [1] = 3-oxo-C12-AHL 100 μM and 3-oxo-C12-HS 250 μM, respectively
# [2] = water droplets, E7-infused SLIPS, 20°
compound,measurement,setting,value
3-(3-Hydroxyalkanoyloxy) alkanoic acid [HAA],sliding time,"≥12.5 μg/mL HAA, 50 μL, 4 cm, 20°",~18 s
CCCCCCCCCC(=O)CC(=O)N[C@@H]1CCOC1=O [3-oxo-C12-AHL],sliding time,[1],~12 s
CCCCCCCCCC(=O)CC(=O)N[C@@H](CCO)C(=O)O [3-oxo-C12-HS],sliding time,[1],~12 s
"CCCCCCCCCCCC[N+](C)(C)C.[Br-] [DTAB, dodecyl-trimethylammonium bromide]",bulk surfactant concentration giving average sliding time 58-62 s (~1 min),[2],3 mM
"CCCCCCCCCCCCCCCC[N+](C)(C)C.[Br-] [HTAB, hexadecyltrimethylammonium bromide]",surfactant concentration required for average sliding time of ~60 s,,100 µM
same,times lower concentration than DTAB for ~60 s sliding time,[2],~30 times
